The list shows a part of the results.

Among the test systems are Arfaptin-1 (human); Ataxin-3 (human); B3GALT4 (human); B3GNT1 (human); BAG2 (human); BAT1 (human).
Assay in all cases: protein microarray (ProtoArray v5.0), streptavidin-Alexa Fluor 647
Settings in all cases: 3'-biotin; 20 mM Tris (pH 7.5), 5 mM MgCl2, 100 mM KCl, 0.1% Tween-20, A/T-rich and random oligonucleotide blockers; temperature not stated; high values mean tight binding

Assay [1] concerns Apolipoprotein L2 (human).
For assay [2], the system named is Armadillo repeat-containing protein 6 (human).
In assay [3] the test system is Aromatic-L-amino-acid decarboxylase (human).
Assay [4] has as its system Autophagy-related protein 3 (human).

With “GGGGACAGGGGTATGGGGAGGGG [G4-3 biotinylated (CtG)]”, the binding signal was -0.334 z-score in [1]; -0.34 z-score in the assay with Arfaptin-1 (human); -0.336 z-score in [2]; -0.336 z-score in assay [3]; -0.324 z-score with Ataxin-3 (human); -0.32 z-score in [4]. In addition, the binding signal in the assay on B3GALT4 (human) was -0.315 z-score; in the assay on B3GNT1 (human), -0.318 z-score; in the assay on BAG2 (human), -0.325 z-score; in the assay on BAT1 (human), -0.28 z-score.

For the origin of these results see paper PMC5996148.
